Taken from: PubChem BioAssay AID743121 (NCATS, 2013)

Test: 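Partners whose loss is lethal together with topoisomerase I blockade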 (primary screen)
System: MDA-MB-231 cells, a human breast cancer line
Reagents: single siRNA against human genes, 20 nM siRNA (0.8 pmol per well)
Duration: 120 h (drug added 48 h after transfection, read 72 h later)
Challenge: camptothecin 20 nM (about EC30) for 72 h; vehicle 0.1% DMSO in parallel plates
Measured: 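Cell viability by ATP luminescence (CellTiter-Glo) as % of non-targeting siRNA wells, and the log2 ratio of viability without drug over viability with camptothecin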
Direction: log2 vehicle/camptothecin viability: higher = stronger sensitisation to camptothecin; viability with camptothecin and viability without drug: higher = more viable cells
Rule for the call: 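Each gene scored by redundant siRNA activity (RSA) over its individual siRNA ratios; a gene is called active at p < 0.001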
The deposit covers about 26,000 reagents; below is a part drawn at random. 167 of them (0.63%) count as active. 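Calls are per gene from RSA p-values that are not deposited; an individual active-marked siRNA can sensitise only weakly.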 Unmarked entries are inactive. The numbers tell different reagents against one gene apart. No sequences are given here.

The opening 2 records, to show the layout:
gene | reagent | log2 vehicle/camptothecin viability | viability with camptothecin (% of control) | viability without drug (% of control)
CRK | 1 | -0.288 | 50.3 | 41.2
CRK | 2 | 0.366 | 62.8 | 80.9

Results, from the first entry:
gene | reagent | log2 vehicle/camptothecin viability | viability with camptothecin (% of control) | viability without drug (% of control)
CRK | 1 | -0.288 | 50.3 | 41.2
CRK | 2 | 0.366 | 62.8 | 80.9
CRK | 3 | -0.251 | 57.4 | 48.3
CRK | 4 | -0.733 | 116 | 69.5
ABCA6 | 1 | 0.112 | 89.1 | 96.3
ABCA6 | 2 | -0.0662 | 95.6 | 91.3
ABCA6 | 3 | 0.248 | 64.2 | 76.2
ABCA6 | 4 | -0.269 | 98.6 | 81.9
DYRK2 | 1 | -0.163 | 81.4 | 72.7
DYRK2 | 2 | 0.0322 | 46.9 | 48
DYRK2 | 3 | -0.166 | 82.8 | 73.8
DYRK2 | 4 | -0.258 | 65.8 | 55
TSHR | 1 | 0.0359 | 81.3 | 83.4
TSHR | 2 | -0.0696 | 115 | 110
TSHR | 3 | -0.389 | 27.5 | 21
TSHR | 4 | 0.914 | 31.3 | 58.9
MAP3K12 | 1 | 1.25 | 32.5 | 77.6
MAP3K12 | 2 | -0.298 | 34.8 | 28.3
MAP3K12 | 3 | -0.414 | 82.3 | 61.8
MAP3K12 | 4 | -0.163 | 95.6 | 85.3
PPP2R1B | 1 | 1.86 | 10.6 | 38.5
PPP2R1B | 2 | -0.382 | 114 | 87.8
PPP2R1B | 3 | -0.153 | 75.2 | 67.6
PPP2R1B | 4 | -0.493 | 56.8 | 40.3
PCDH10 | 1 | -0.416 | 47.2 | 35.3
PCDH10 | 2 | -0.535 | 75.7 | 52.3
PCDH10 | 3 | -0.139 | 90.7 | 82.4
PTK6 | 1 | -0.247 | 120 | 101
PTK6 | 2 | -0.7 | 51.4 | 31.7
PTK6 | 3 | -0.375 | 57.1 | 44
PTK6 | 4 | -0.0273 | 79.8 | 78.3
